Test results reported in paper PMC12171143, “The Arabidopsis E3 ubiquitin ligase PUB13 synergistically interacts with BON1 to regulate plant flowering and immunity” (Frontiers in Plant Science, 2025).
Results are given in words; binding and its absence hold for the method and conditions named. For some assays here: Binding seen in cells or lysates may run through a third protein. Some entries that bind do so weakly or less than the wild type. Where a sequence is shown, tags or fusion partners need not be part of it.

Columns and labels:
[1] = target: T1, PUB13^V273R, full-length CDS in the BD vector pDBLeu (yeast two-hybrid bait) (Arabidopsis thaliana) (UniProt Q9SNC6); experiment: two-hybrid; PUB13^V273R in pDBLeu (BD) as bait, BON1 or prey library in pPC86 (AD); yeast MaV203; SD/-Leu/-Trp/-His medium, 30°C, X-gal assay on YPDA (ProQuest system)
T1 sequence: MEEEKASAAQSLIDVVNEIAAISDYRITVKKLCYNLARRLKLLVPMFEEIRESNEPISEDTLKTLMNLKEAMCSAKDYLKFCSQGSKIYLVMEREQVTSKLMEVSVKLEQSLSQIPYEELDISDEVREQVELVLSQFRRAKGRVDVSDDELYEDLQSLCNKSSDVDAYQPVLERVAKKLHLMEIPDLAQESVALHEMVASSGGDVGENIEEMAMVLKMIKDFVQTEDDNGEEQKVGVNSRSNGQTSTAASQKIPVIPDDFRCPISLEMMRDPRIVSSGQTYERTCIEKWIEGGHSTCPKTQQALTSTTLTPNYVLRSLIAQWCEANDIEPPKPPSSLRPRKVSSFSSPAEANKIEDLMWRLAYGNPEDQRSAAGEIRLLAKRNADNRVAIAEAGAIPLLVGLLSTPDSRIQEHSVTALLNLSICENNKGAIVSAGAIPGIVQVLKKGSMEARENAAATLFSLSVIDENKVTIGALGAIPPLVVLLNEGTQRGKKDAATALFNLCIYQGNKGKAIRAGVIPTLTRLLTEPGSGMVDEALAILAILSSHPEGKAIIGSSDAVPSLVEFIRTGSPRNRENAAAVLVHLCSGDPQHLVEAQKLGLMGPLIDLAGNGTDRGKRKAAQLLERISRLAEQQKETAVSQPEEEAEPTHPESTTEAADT

[2] = target: T2, PUB13-Nluc (Arabidopsis thaliana) (UniProt Q9SNC6); experiment: split reporter; luciferase complementation imaging (LCI); PUB13-NLuc and BON1-CLuc co-infiltrated with P19 into N. benthamiana leaves, 48 h at 26°C in the dark
T2 sequence: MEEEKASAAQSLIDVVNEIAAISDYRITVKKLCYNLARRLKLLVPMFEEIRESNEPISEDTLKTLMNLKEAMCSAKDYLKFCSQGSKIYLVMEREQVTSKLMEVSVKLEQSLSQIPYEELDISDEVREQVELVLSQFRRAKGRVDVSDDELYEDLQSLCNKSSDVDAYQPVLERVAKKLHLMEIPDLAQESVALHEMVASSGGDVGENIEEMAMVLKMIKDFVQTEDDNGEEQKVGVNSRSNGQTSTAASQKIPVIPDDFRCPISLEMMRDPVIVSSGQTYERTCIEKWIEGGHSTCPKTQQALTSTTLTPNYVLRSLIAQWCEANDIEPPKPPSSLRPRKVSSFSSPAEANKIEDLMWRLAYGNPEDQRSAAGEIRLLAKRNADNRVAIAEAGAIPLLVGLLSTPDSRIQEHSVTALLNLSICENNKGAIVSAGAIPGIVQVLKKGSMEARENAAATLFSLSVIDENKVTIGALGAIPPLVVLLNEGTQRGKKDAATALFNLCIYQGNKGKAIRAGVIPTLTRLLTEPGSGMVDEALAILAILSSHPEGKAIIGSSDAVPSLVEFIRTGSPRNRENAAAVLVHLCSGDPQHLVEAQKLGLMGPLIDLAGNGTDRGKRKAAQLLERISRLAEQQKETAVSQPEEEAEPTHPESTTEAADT

Row | Binder | binding [1] | binding [2]
1 | BON1, full-length CDS in the AD vector pPC86 (yeast two-hybrid prey) (protein, UniProt Q941L3 1-578) MGNCCSDVASGAGATAGVGGSGSSAALGATNDALDYYLKSKGFNGLFSQIELSFSASNLRDRDVLSKSDPMVVVYQKEKDATLSEVFRSEVVLNSLAPKWIKKFIVAYHFETVQTLVFRVYDVDTKFQNSREEMLKLDEQQFLGEATCALSEIITKSTRTSTLELKRKDGFAPQAQPHHGKLIIHAEESLASKISTEIVFRCSNLESKDLFSKSDPFLVVSKIVEHGTPIPVSKTEVRKNDLNPIWKPVFLSVQQVGSKDSPVIIECSDFNSNGKHSLIGKVQKSLSDLEKLHLAGQGINFSLPTGAGQNKVLKSQLFVDKFTETVHHTFLEYLASGFELNFMVAIDFTASNGNPRLPDSLHYIDPSGRLNAYQRAIMDVGEVLQFYDSDKRFPAWGFGARPIDAPVSHCFNLNGSSSYSEVDGIQGIMTSYTSALFNVSLAGPTLFGPVINAAAMIASASLAQGSRKYYVLLIITDGVITDLQETKDALVSASDLPLSILIVGVGGADFKEMEILDADKGERLESSSGRLASRDIVQFVALRDVQYGEISVVQALLAELPSQFLTYMRIRNMKPIPP | binds | –
2 | BON1-Cluc (protein, UniProt Q941L3 1-578) MGNCCSDVASGAGATAGVGGSGSSAALGATNDALDYYLKSKGFNGLFSQIELSFSASNLRDRDVLSKSDPMVVVYQKEKDATLSEVFRSEVVLNSLAPKWIKKFIVAYHFETVQTLVFRVYDVDTKFQNSREEMLKLDEQQFLGEATCALSEIITKSTRTSTLELKRKDGFAPQAQPHHGKLIIHAEESLASKISTEIVFRCSNLESKDLFSKSDPFLVVSKIVEHGTPIPVSKTEVRKNDLNPIWKPVFLSVQQVGSKDSPVIIECSDFNSNGKHSLIGKVQKSLSDLEKLHLAGQGINFSLPTGAGQNKVLKSQLFVDKFTETVHHTFLEYLASGFELNFMVAIDFTASNGNPRLPDSLHYIDPSGRLNAYQRAIMDVGEVLQFYDSDKRFPAWGFGARPIDAPVSHCFNLNGSSSYSEVDGIQGIMTSYTSALFNVSLAGPTLFGPVINAAAMIASASLAQGSRKYYVLLIITDGVITDLQETKDALVSASDLPLSILIVGVGGADFKEMEILDADKGERLESSSGRLASRDIVQFVALRDVQYGEISVVQALLAELPSQFLTYMRIRNMKPIPP | – | binds
